{
  "sequences": {"note": "Sequences of proteins named here, by UniProt entry; tags and fusion partners are left off. A change or cut given only in a name is not applied to a line headed by its entry. Residues count along the entry.", "UniProt P22646, residues 22-189": "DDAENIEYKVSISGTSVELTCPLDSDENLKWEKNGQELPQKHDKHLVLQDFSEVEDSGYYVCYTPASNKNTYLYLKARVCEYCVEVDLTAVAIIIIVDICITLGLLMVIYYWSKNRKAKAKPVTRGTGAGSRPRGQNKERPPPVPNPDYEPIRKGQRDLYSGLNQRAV"},
  "source": "paper PMC2776832",
  "target": "T1, CD3γ (mouse (endogenous in mouse T cells)) (UniProt P11942)",
  "T1 sequence": "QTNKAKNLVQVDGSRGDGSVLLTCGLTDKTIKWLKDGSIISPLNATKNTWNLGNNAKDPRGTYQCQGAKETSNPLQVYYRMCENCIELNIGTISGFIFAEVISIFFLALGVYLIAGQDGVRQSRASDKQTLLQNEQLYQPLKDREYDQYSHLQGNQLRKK",
  "assay": "flow cytometry on cells; total CD4+ or CD8+ T cells from spleen and lymph nodes stained with mAb 7D6, specific for the associated CD3γ/ε heterodimer; both partners on the same cell; staining as percent of tgε^WT",
  "note": "These are yes or no findings as the source states them, for the method shown. Some entries that bind do so weakly or less than the wild type.",
  "data": [
    {"substance": "non-mutated murine CD3ε with c-Myc and flash tags (ε^WT) (from UniProt P22646 22-189)", "values": [
      {"measurement": "binding", "result": "binds"}
    ]}
  ]
}
